Results reported in US11491109B2, “Pharmaceutical compositions for basic or neutral, low molecular weight compounds” (Hoffmann-La Roche Inc., priority 2017, dated 2022).
Values after ≈ are worked out from the molar mass of the structure shown.

Columns and labels:
[1] = Description: Polymer solutions were prepared by dissolving EPO (0.1%, 0.5%, 1%, 2%, 3%, 4%, 5% (w/w)) in deionized water and adjusting all solutions to pH 6.0 by hydrochloric acid and sodium hydroxide at 25° C. Solutions were checked carefully for absence of particles.
(§1) Solubility of compounds in EPO-solutions was determined by using a 96-well assay that was introduced to measure equilibrium solubility in parallel to a solid state analysis of the residual solid (SORESOS)^21 as described before.^22 In brief, APIs were dispensed using the powder-picking-method^23 in a 96-well flat bottom plate (Corning Inc., Durham, USA). Mixtures were agitated by head-over-head rotation for 48 h at room temperature after addition of stir bars and polymer solutions (150 μl). […] Samples were analyzed directly in the 96-well filter plate with an exposure time of 5 min per well.
as §1, with “USA).” for “USA). Mixtures were agitated by head-over-head rotation for 48 h at room temperature after addition of stir bars and polymer solutions (150 μl).”

[2] = physchem; conditions: water, thermodynamic from solid

Q: Which “course of solubility with polymer concentration” value [1] does the source give for COC(=O)C1=C(C)NC(C)=C(C(=O)OC)C1c1ccccc1[N+](=O)[O-] [NFP, nifedipine] here?
A: Its value is “increase of solubility with polymer concentration up to 5% EPO”.

Q: And the solubility [2]?
A: Its solubility is 18 µg/mL (≈ 52 µM).
